In US20160113911A1, “METHODS AND COMPOSITIONS FOR THE TREATMENT OF CANCER” (THE GENERAL HOSPITAL CORPORATION, priority 2013, published 2016) one finds Localization data, which are given here for two molecules.

The series is described as follows: Subcellular localization of KDM4 variants (immunofluorescence). The format is cell-based. The note with it: KDM4A mutations; % nuclear.

B1: 2A-E558Q: KDM4A mutation (protein)
chain: MASESETLNPSARIMTFYPTMEEFRNFSRYIAYIESQGAHRAGLAKVVPPKEWKPRASYDDIDDLVIPAPIQQLVTGQSGLFTQYNIQKKAMTVREFRKIANSDKYCTPRYSEFEELERKYWKNLTFNPPIYGADVNGTLYEKHVDEWNIGRLRTILDLVEKESGITIEGVNTPYLYFGMWKTSFAWHTEDMDLYSINYLHFGEPKSWYSVPPEHGKRLERLAKGFFPGSAQSCEAFLRHKMTLISPLMLKKYGIPFDKVTQEAGEFMITFPYGYHAGFNHGFNCAESTNFATRRWIEYGKQAVLCSCRKDMVKISMDVFVRKFQPERYKLWKAGKDNTVIDHTLPTPEAAEFLKESELPPRAGNEEECPEEDMEGVEDGEEGDLKTSLAKHRIGTKRHRVCLEIPQEVSQSELFPKEDLSSEQYEMTECPAALAPVRPTHSSVRQVEDGLTFPDYSDSTEVKFEELKNVKLEEEDEEEEQAAAALDLSVNPASVGGRLVFSGSKKKSSSSLGSGSSRDSISSDSETSEPLSCRAQGQTGVLTVHSYAKGDGRVTVGQPCTRKKGSAARSFSERELAEVADEYMFSLEENKKSKGRRQPLSKLPRHHPLVLQECVSDDETSEQLTPEEEAEETEAWAKPLSQLWQNRPPNFEAEKEFNETMAQQAPHCAVCMIFQTYHQVEFGGFNQNCGNASDLAPQKQRTKPLIPEMCFTSTGCSTDINLSTPYLEEDGTSILVSCKKCSVRVHASCYGVPPAKASEDWMCSRCSANALEEDCCLCSLRGGALQRANDDRWVHVSCAVAILEARFVNIAERSPVDVSKIPLPRFKLKCIFCKKRRKRTAGCCVQCSHGRCPTAFHVSCAQAAGVMMQPDDWPFVVFITCFRHKIPNLERAKGALQSITAGQKVISKHKNGRFYQCEVVRLTTETFYEVNFDDGSFSDNLYPEDIVSQDCLQFGPPAEGEVVQVRWTDGQVYGAKFVASHPIQMYQVEFEDGSQLVVKRDDVYTLDEELPKRVKSRLSVASDMRFNEIFTEKEVKQEKKRQRVINSRYREDYIEPALYRAIME
On to B1, for which the Localization result was “+ (+ indicates 40-59% nuclear)”.

B2: 2A-V743I*: KDM4A mutation (protein, UniProt O75164 2-1064, looked up, variant V743I)
Lysine-specific demethylase 4A: ASESETLNPSARIMTFYPTMEEFRNFSRYIAYIESQGAHRAGLAKVVPPKEWKPRASYDDIDDLVIPAPIQQLVTGQSGLFTQYNIQKKAMTVREFRKIANSDKYCTPRYSEFEELERKYWKNLTFNPPIYGADVNGTLYEKHVDEWNIGRLRTILDLVEKESGITIEGVNTPYLYFGMWKTSFAWHTEDMDLYSINYLHFGEPKSWYSVPPEHGKRLERLAKGFFPGSAQSCEAFLRHKMTLISPLMLKKYGIPFDKVTQEAGEFMITFPYGYHAGFNHGFNCAESTNFATRRWIEYGKQAVLCSCRKDMVKISMDVFVRKFQPERYKLWKAGKDNTVIDHTLPTPEAAEFLKESELPPRAGNEEECPEEDMEGVEDGEEGDLKTSLAKHRIGTKRHRVCLEIPQEVSQSELFPKEDLSSEQYEMTECPAALAPVRPTHSSVRQVEDGLTFPDYSDSTEVKFEELKNVKLEEEDEEEEQAAAALDLSVNPASVGGRLVFSGSKKKSSSSLGSGSSRDSISSDSETSEPLSCRAQGQTGVLTVHSYAKGDGRVTVGEPCTRKKGSAARSFSERELAEVADEYMFSLEENKKSKGRRQPLSKLPRHHPLVLQECVSDDETSEQLTPEEEAEETEAWAKPLSQLWQNRPPNFEAEKEFNETMAQQAPHCAVCMIFQTYHQVEFGGFNQNCGNASDLAPQKQRTKPLIPEMCFTSTGCSTDINLSTPYLEEDGTSILVSCKKCSIRVHASCYGVPPAKASEDWMCSRCSANALEEDCCLCSLRGGALQRANDDRWVHVSCAVAILEARFVNIAERSPVDVSKIPLPRFKLKCIFCKKRRKRTAGCCVQCSHGRCPTAFHVSCAQAAGVMMQPDDWPFVVFITCFRHKIPNLERAKGALQSITAGQKVISKHKNGRFYQCEVVRLTTETFYEVNFDDGSFSDNLYPEDIVSQDCLQFGPPAEGEVVQVRWTDGQVYGAKFVASHPIQMYQVEFEDGSQLVVKRDDVYTLDEELPKRVKSRLSVASDMRFNEIFTEKEVKQEKKRQRVINSRYREDYIEPALYRAIME
Turning to B2, the Localization entry is recorded as “+++ (+++ indicates >80% nuclear)”.
